The list is a part of this screen's results and no random one: it is rich in T/C values a quarter to a half above the control, in often repeated tests (any T/C) and in doses without a T/C. Other doses and runs of a compound stand elsewhere. T/C: endpoint of the treated group in % of that of the vehicle group. Some entries give survivors of the animals treated and no T/C: the source files T/C as zero there, which appears to mark a toxic dose or a test without result, not a measured value. Some survivor counts are full or nearly so, which does not show that the dose was tolerated: the source hardly ever lists a survival T/C far under the control, and the zero likely stands for such cases as well. Counts of survivors are from the toxicity check (mostly the fifth day) where no day follows; animals may have died later. Schedule codes are those of the source, taken here to give the interval after Q, in days (D) or hours (H), and the number of doses after X. Some entries hold several experiments; the results are listed from low to high. Some schedules carry Z or #; the key to these is not given. Where survival is the endpoint, the PubChem record calls one and a half times the control and up active, and a quarter to a half above the control has no call in these data; cut-offs in other NCI protocols can differ. Some T/C values carry the count of animals alive at the toxicity check (mostly the fifth day); where none is given, no animal had died by that day.
System: B6C3F1 mice, intracerebral ependymoblastoma, median survival T/C
Test: NCI In Vivo Anticancer Drug Screen. Data for tumor model Ependymoblastoma (intracerebral) in B6C3F1 mice
Conditions: T/C endpoint: median survival time, higher T/C = longer survival
Method: The antitumor activity of compounds was measured in mice bearing transplantable tumors. Survival or tumor size were measured and the results are expressed as the measurement made in the treated group (T) divided by the measurement made in the vehicle treated control group (C). The tumor model used in this assay is Ependymoblastoma (intracerebral) in B6C3F1 mice

[1] = dose: 32.0 mg/kg/injection, schedule: Q01DX005 (ip), vehicle: Klucel (hydroxypropylcellulose) (HPC)

SMILES: CN(N=O)C(N)=O
- T/C (dose: 1.0 mg/kg/injection, schedule: Q01DX005 (ip), vehicle: saline + alcohol, evaluated on day 45): 130 % of control
- T/C (dose: 1.0 mg/kg/injection, schedule: Q01DX005 (ip), vehicle: saline + alcohol, evaluated on day 60): 107 [8 of 10 alive], 115, 130 % of control
- T/C (dose: 1.0 mg/kg/injection, schedule: Q## X006 (ip), vehicle: saline + alcohol): 132 % of control
- T/C (dose: 2.0 mg/kg/injection, schedule: Q01DX005 (ip), vehicle: saline + alcohol, evaluated on day 45): 136 % of control
- T/C (dose: 2.0 mg/kg/injection, schedule: Q01DX005 (ip), vehicle: saline + alcohol, evaluated on day 60): 125, 132 [9 of 10 alive], 145 % of control
- T/C (dose: 2.0 mg/kg/injection, schedule: Q## X006 (ip), vehicle: saline + alcohol): 141 % of control
- T/C (dose: 2.5 mg/kg/injection, schedule: Q01DX001 (ip), vehicle: saline): 125 % of control
- T/C (dose: 4.0 mg/kg/injection, schedule: Q01DX001 (ip), vehicle: saline + alcohol): 130 % of control
- T/C (dose: 4.0 mg/kg/injection, schedule: Q01DX005 (ip), vehicle: Klucel (hydroxypropylcellulose) (HPC)): 140 and 140 % of control [9 of 10 alive]
- T/C (dose: 4.0 mg/kg/injection, schedule: Q01DX005 (ip), vehicle: saline + alcohol, evaluated on day 45): 150 % of control
- T/C (dose: 4.0 mg/kg/injection, schedule: Q01DX005 (ip), vehicle: saline + alcohol, evaluated on day 60): 123 [9 of 10 alive], 130, 154 % of control
- T/C (dose: 4.0 mg/kg/injection, schedule: Q## X004 (ip), vehicle: saline + alcohol): 145 % of control
- T/C (dose: 5.0 mg/kg/injection, schedule: Q01DX001 (ip), vehicle: saline): 146 % of control
- T/C (dose: 8.0 mg/kg/injection, schedule: Q01DX001 (ip), vehicle: saline + alcohol): 130 and 136 % of control
- T/C (dose: 8.0 mg/kg/injection, schedule: Q01DX005 (ip), vehicle: saline + alcohol, evaluated on day 45): 156 % of control
- T/C (dose: 8.0 mg/kg/injection, schedule: Q01DX005 (ip), vehicle: saline + alcohol, evaluated on day 60): 119 [9 of 10 alive], 137, 160 % of control
- T/C (dose: 8.0 mg/kg/injection, schedule: Q01DX005 (oral), vehicle: saline + alcohol): 143 % of control
- T/C (dose: 8.0 mg/kg/injection, schedule: Q#A X002 (ip), vehicle: saline + alcohol): 132 % of control
- T/C (dose: 10.0 mg/kg/injection, schedule: Q01DX001 (ip), vehicle: saline): 140 % of control
- survivor count (dose: 12.5 mg/kg/injection, schedule: Q01DX009 (ip), vehicle: saline): 9 of 10
- T/C (dose: 16.0 mg/kg/injection, schedule: Q01DX001 (ip), vehicle: saline + alcohol): 128 [7 of 10 alive], 134, 142 % of control
- T/C (dose: 16.0 mg/kg/injection, schedule: Q01DX001 (oral), vehicle: saline + alcohol): 130 and 143 % of control
- T/C (dose: 16.0 mg/kg/injection, schedule: Q01DX005 (ip), vehicle: Klucel (hydroxypropylcellulose) (HPC)): 146 % of control
- T/C (dose: 16.0 mg/kg/injection, schedule: Q01DX005 (ip), vehicle: saline + alcohol, evaluated on day 45): 89 % of control
- T/C (dose: 16.0 mg/kg/injection, schedule: Q01DX005 (ip), vehicle: saline + alcohol, evaluated on day 60): 125, 129, 145 % of control
- T/C (dose: 16.0 mg/kg/injection, schedule: Q## X004 (ip), vehicle: saline + alcohol): 145 % of control
- T/C (dose: 16.0 mg/kg/injection, schedule: Q#A X002 (ip), vehicle: saline + alcohol): 139 % of control [9 of 10 alive]
- T/C (dose: 20.0 mg/kg/injection, schedule: Q01DX001 (ip), vehicle: saline): 147 % of control
- survivor count (dose: 25.0 mg/kg/injection, schedule: Q01DX009 (ip), vehicle: saline): 10 of 10
- T/C (dose: 32.0 mg/kg/injection, schedule: Q01DX001 (ip), vehicle: saline + alcohol): 136 and 149 % of control
- T/C (dose: 32.0 mg/kg/injection, schedule: Q01DX001 (oral), vehicle: saline + alcohol): 136 and 139 % of control
- T/C [1]: 132 % of control
- survivor count [1]: 9 of 10
- T/C (dose: 32.0 mg/kg/injection, schedule: Q#A X002 (ip), vehicle: saline + alcohol): 125 % of control [9 of 10 alive]
- survivor count (dose: 50.0 mg/kg/injection, schedule: Q01DX009 (ip), vehicle: saline): 9 of 10
- T/C (dose: 64.0 mg/kg/injection, schedule: Q01DX001 (ip), vehicle: saline + alcohol): 139 % of control
- T/C (dose: 64.0 mg/kg/injection, schedule: Q01DX001 (oral), vehicle: saline + alcohol): 139 and 143 % of control
- survivor count (dose: 64.0 mg/kg/injection, schedule: Q01DX005 (ip), vehicle: Klucel (hydroxypropylcellulose) (HPC)): 7 of 10 and 9 of 10
- survivor count (dose: 64.0 mg/kg/injection, schedule: Q01DX005 (oral), vehicle: saline + alcohol): 10 of 10
- survivor count (dose: 64.0 mg/kg/injection, schedule: Q## X004 (ip), vehicle: saline + alcohol): 9 of 10
- T/C (dose: 80.0 mg/kg/injection, schedule: Q01DX001 (ip), vehicle: saline): 136 % of control
- survivor count (dose: 128.0 mg/kg/injection, schedule: Q01DX001 (oral), vehicle: saline + alcohol): 9 of 10
- survivor count (dose: 160.0 mg/kg/injection, schedule: Q01DX001 (ip), vehicle: saline + alcohol): 7 of 10
- T/C (dose: 160.0 mg/kg/injection, schedule: Q01DX001 (ip), vehicle: saline): 136 % of control
- survivor count (dose: 256.0 mg/kg/injection, schedule: Q01DX001 (oral), vehicle: saline + alcohol): 0 of 10
- survivor count (dose: 320.0 mg/kg/injection, schedule: Q01DX001 (ip), vehicle: saline): 1 of 10

— PubChem BioAssay AID226 (DTP/NCI, 2004)
